In PubChem BioAssay AID222 (DTP/NCI, 2004):
The list does not hold the whole screen: it gathers tests that were run many times, whatever their T/C, doses with no T/C, and many T/C values between a quarter and a half above the control. Further doses and runs are listed elsewhere. T/C gives the treated animals as a percentage of the vehicle group. Some entries give survivors of the animals treated and no T/C: the source files T/C as zero there, which appears to mark a toxic dose or a test without result, not a measured value. Some survivor counts are full or nearly so, which does not show that the dose was tolerated: survival well below the control is almost never listed, so the zero probably covers shortened survival too. Counts of survivors are from the toxicity check (mostly the fifth day) where no day follows; animals may have died later. Schedules are NCI's codes, read here as Q, the interval in days (D) or hours (H), X, the number of doses. Some doses were run more than once; their values stand side by side, smallest first. For survival time, this PubChem deposit counts one and a half times the control or more as active, and values a quarter to a half above the control carry no call in these data; other NCI protocols may use other cut-offs. Some T/C values are followed by the survivors on the day toxicity was checked, most often the fifth; without a count, all were alive then. Additions like (4×) give the number of equal values in this list. Some schedule codes hold Z or #, which are not explained here.

System: C57BL/6 mice, intracerebral ependymoblastoma, median survival T/C
Assay: NCI In Vivo Anticancer Drug Screen. Data for tumor model Ependymoblastoma (intracerebral) in C57BL/6 mice
Settings: T/C endpoint: median survival time, higher T/C = longer survival
Protocol: The antitumor activity of compounds was measured in mice bearing transplantable tumors. Survival or tumor size were measured and the results are expressed as the measurement made in the treated group (T) divided by the measurement made in the vehicle treated control group (C). The tumor model used in this assay is Ependymoblastoma (intracerebral) in C57BL/6 mice

[1] = dose: 4.0 mg/kg/injection, schedule: Q01DX005 (ip), vehicle: alcohol
[2] = dose: 32.0 mg/kg/injection, schedule: Q01DX001 (ip), vehicle: saline
[3] = dose: 32.0 mg/kg/injection, schedule: Q01DX001 (oral), vehicle: saline
[4] = dose: 40.0 mg/kg/injection, schedule: Q01DX001 (ip), vehicle: saline with Tween-80
[5] = dose: 64.0 mg/kg/injection, schedule: Q01DX001 (ip), vehicle: saline
[6] = dose: 64.0 mg/kg/injection, schedule: Q01DX001 (oral), vehicle: saline
[7] = dose: 80.0 mg/kg/injection, schedule: Q01DX001 (ip), vehicle: saline with Tween-80
[8] = dose: 128.0 mg/kg/injection, schedule: Q01DX001 (oral), vehicle: saline

Question: With O=NN(CCCl)C(=O)NCCCl as the compound, how does the T/C (dose: 0.25 mg/kg/injection, schedule: Q03HX032 (ip), vehicle: saline) read?
Answer: 125 % of control

Question: What about the T/C (dose: 0.5 mg/kg/injection, schedule: Q03HX008 (ip), vehicle: saline) of the same compound?
Answer: 136 % of control

Question: And the T/C (dose: 0.5 mg/kg/injection, schedule: Q03HX032 (ip), vehicle: saline)?
Answer: 132 % of control

Question: And the T/C (dose: 1.0 mg/kg/injection, schedule: Q03HX032 (ip), vehicle: saline)?
Answer: 134 and 147 % of control

Question: And the T/C (dose: 2.0 mg/kg/injection, schedule: Q01DX005 (ip), vehicle: Klucel (hydroxypropylcellulose) (HPC))?
Answer: 101, 106 [9 of 10 alive], 108, 110 (2×), 115, 119, 142, 177 % of control

Question: And the T/C (dose: 2.0 mg/kg/injection, schedule: Q01DX005 (ip), vehicle: saline + alcohol)?
Answer: 95, 102, 103, 118 % of control (2×)

Question: What about the T/C (dose: 2.5 mg/kg/injection, schedule: Q01DX001 (ip), vehicle: saline with Tween-80) of the same compound?
Answer: 89 [1 of 10 alive], 94 [3 of 10 alive], 101 [5 of 10 alive], 108, 112, 113, 114, 118, 123 % of control

Question: What about the T/C (dose: 4.0 mg/kg/injection, schedule: Q01DX001 (ip), vehicle: saline) of the same compound?
Answer: 106, 108, 110 [survivors not given], 113, 115 [survivors not given], 117, 119, 121 [survivors not given], 125 [survivors not given], 126 % of control

Question: And the T/C (dose: 4.0 mg/kg/injection, schedule: Q01DX005 (ip), vehicle: Klucel (hydroxypropylcellulose) (HPC))?
Answer: 111 (2×), 113, 128 [9 of 10 alive], 132 [9 of 10 alive], 135 [9 of 10 alive], 140, 142, 157 % of control

Question: And the T/C [1]?
Answer: 134 % of control

Question: And the survivor count [1]?
Answer: 10 of 10

Question: What about the T/C (dose: 4.0 mg/kg/injection, schedule: Q01DX005 (ip), vehicle: saline + alcohol) of the same compound?
Answer: 111, 126, 140, 144, 147 % of control

Question: And the T/C (dose: 4.0 mg/kg/injection, schedule: Q01DX005 (ip), vehicle: saline with Tween-80)?
Answer: 127 % of control [8 of 10 alive]

Question: What about the T/C (dose: 4.0 mg/kg/injection, schedule: Q## X006 (ip), vehicle: saline with Tween-80) of the same compound?
Answer: 145 % of control

Question: What about the T/C (dose: 5.0 mg/kg/injection, schedule: Q01DX001 (ip), vehicle: saline with Tween-80) of the same compound?
Answer: 89 [1 of 10 alive], 94 [4 of 10 alive], 110 [6 of 10 alive], 112, 113, 119, 124, 132, 143 % of control

Question: What about the T/C (dose: 7.5 mg/kg/injection, schedule: Q01DX001 (ip), vehicle: saline with Tween-80) of the same compound?
Answer: 134 % of control [5 of 6 alive]

Question: What about the T/C (dose: 8.0 mg/kg/injection, schedule: Q01DX001 (ip), vehicle: saline) of the same compound?
Answer: 93, 103 [survivors not given], 113 [survivors not given], 114, 121 [survivors not given], 127, 131 [survivors not given], 140 (2×), 146 % of control

Question: What about the T/C (dose: 8.0 mg/kg/injection, schedule: Q## X006 (ip), vehicle: saline with Tween-80) of the same compound?
Answer: 125 % of control

Question: What about the T/C (dose: 10.0 mg/kg/injection, schedule: Q01DX001 (ip), vehicle: saline with Tween-80) of the same compound?
Answer: 94 [3 of 10 alive], 98 [3 of 10 alive], 100 [4 of 10 alive], 103 [5 of 10 alive], 126, 132, 133 [9 of 10 alive], 134, 147, 162 % of control

Question: And the T/C (dose: 10.0 mg/kg/injection, schedule: Q01DX001 (oral), vehicle: saline with Tween-80)?
Answer: 143 % of control [9 of 10 alive]

Question: What about the T/C (dose: 16.0 mg/kg/injection, schedule: Q01DX001 (ip), vehicle: saline) of the same compound?
Answer: 109 [survivors not given], 139 [9 of 10 alive], 142, 147 [survivors not given], 165, 173, 178 [survivors not given], 184, 192 [survivors not given], 203 % of control

Question: And the T/C (dose: 16.0 mg/kg/injection, schedule: Q01DX001 (oral), vehicle: saline)?
Answer: 106 [7 of 10 alive], 116, 142, 176 % of control

Question: And the T/C (dose: 16.0 mg/kg/injection, schedule: Q04DX004 (ip), vehicle: saline)?
Answer: 135 [9 of 10 alive] and 142 % of control

Question: What about the T/C (dose: 20.0 mg/kg/injection, schedule: Q01DX001 (ip), vehicle: saline with Tween-80) of the same compound?
Answer: 94 [3 of 10 alive] (2×), 104 [5 of 10 alive], 124, 159, 189 [6 of 10 alive], 194, 214, 236, 239 % of control

Question: And the survivor count (dose: 32.0 mg/kg/injection, schedule: Q01DX001 (ip), vehicle: saline with Tween-80)?
Answer: 2 of 10

Question: What about the T/C [2] of the same compound?
Answer: 105 [survivors not given], 117 [survivors not given], 120, 169 [survivors not given], 189 [survivors not given], 244, 267 % of control

Question: What about the survivor count [2] of the same compound?
Answer: 4 of 10, 6 of 10, 10 of 10

Question: What about the T/C [3] of the same compound?
Answer: 125, 169, 196 % of control

Question: And the survivor count [3]?
Answer: 3 of 10

Question: What about the T/C (dose: 32.0 mg/kg/injection, schedule: Q04DX004 (ip), vehicle: saline) of the same compound?
Answer: 136 % of control

Question: And the T/C [4]?
Answer: 87, 93 [2 of 10 alive], 97 [3 of 10 alive], 101 [4 of 10 alive], 133 % of control [9 of 10 alive]

Question: And the survivor count [4]?
Answer: 5 of 10, 9 of 10, 10 of 10

Question: And the survivor count (dose: 60.0 mg/kg/injection, schedule: Q01DX001 (ip), vehicle: saline with Tween-80)?
Answer: 3 of 6

Question: What about the survivor count (dose: 64.0 mg/kg/injection, schedule: Q01DX001 (ip), vehicle: other) of the same compound?
Answer: 9 of 10

Question: What about the T/C [5] of the same compound?
Answer: 89 [survivors not given], 98 [survivors not given], 99 [survivors not given], 111 % of control [survivors not given]

Question: And the survivor count [5]?
Answer: 0 of 10, 1 of 10, 2 of 10, 10 of 10

Question: And the T/C [6]?
Answer: 131 [9 of 10 alive] and 255 % of control

Question: What about the survivor count [6] of the same compound?
Answer: 1 of 10 and 2 of 10

Question: And the survivor count (dose: 64.0 mg/kg/injection, schedule: Q04DX004 (ip), vehicle: saline)?
Answer: 10 of 10

Question: And the survivor count (dose: 64.0 mg/kg/injection, schedule: Q08DX002 (ip), vehicle: saline)?
Answer: 10 of 10

Question: What about the T/C [7] of the same compound?
Answer: 92 [2 of 10 alive] and 98 % of control [2 of 10 alive]

Question: What about the survivor count [7] of the same compound?
Answer: 2 of 10, 4 of 10, 5 of 10, 9 of 10

Question: And the T/C [8]?
Answer: 185 % of control [9 of 10 alive]

Question: And the survivor count [8]?
Answer: 0 of 10, 1 of 10, 9 of 10

Question: What about the survivor count (dose: 128.0 mg/kg/injection, schedule: Q04DX004 (ip), vehicle: saline) of the same compound?
Answer: 10 of 10

Question: What about the survivor count (dose: 128.0 mg/kg/injection, schedule: Q08DX002 (ip), vehicle: saline) of the same compound?
Answer: 9 of 10 and 10 of 10

Question: What about the survivor count (dose: 256.0 mg/kg/injection, schedule: Q01DX001 (oral), vehicle: saline) of the same compound?
Answer: 0 of 10, 1 of 10, 9 of 10, 10 of 10

Question: And the survivor count (dose: 256.0 mg/kg/injection, schedule: Q04DX004 (ip), vehicle: saline)?
Answer: 8 of 10 and 9 of 10

Question: And the survivor count (dose: 512.0 mg/kg/injection, schedule: Q01DX001 (oral), vehicle: saline with Tween-80)?
Answer: 0 of 10
